From the supplement of paper PMC12819154, “High-throughput peptide-centric local stability assay extends protein–ligand identification to membrane proteins, tissues and bacteria” (Nature Structural & Molecular Biology, 2025) come the findings set out here.

Protein sequences, listed by entry. Tags and fused reporters are not part of them. Lines headed by an entry give the natural chain unless they say otherwise; changes in a name come on top.
UniProt Q8CIE2: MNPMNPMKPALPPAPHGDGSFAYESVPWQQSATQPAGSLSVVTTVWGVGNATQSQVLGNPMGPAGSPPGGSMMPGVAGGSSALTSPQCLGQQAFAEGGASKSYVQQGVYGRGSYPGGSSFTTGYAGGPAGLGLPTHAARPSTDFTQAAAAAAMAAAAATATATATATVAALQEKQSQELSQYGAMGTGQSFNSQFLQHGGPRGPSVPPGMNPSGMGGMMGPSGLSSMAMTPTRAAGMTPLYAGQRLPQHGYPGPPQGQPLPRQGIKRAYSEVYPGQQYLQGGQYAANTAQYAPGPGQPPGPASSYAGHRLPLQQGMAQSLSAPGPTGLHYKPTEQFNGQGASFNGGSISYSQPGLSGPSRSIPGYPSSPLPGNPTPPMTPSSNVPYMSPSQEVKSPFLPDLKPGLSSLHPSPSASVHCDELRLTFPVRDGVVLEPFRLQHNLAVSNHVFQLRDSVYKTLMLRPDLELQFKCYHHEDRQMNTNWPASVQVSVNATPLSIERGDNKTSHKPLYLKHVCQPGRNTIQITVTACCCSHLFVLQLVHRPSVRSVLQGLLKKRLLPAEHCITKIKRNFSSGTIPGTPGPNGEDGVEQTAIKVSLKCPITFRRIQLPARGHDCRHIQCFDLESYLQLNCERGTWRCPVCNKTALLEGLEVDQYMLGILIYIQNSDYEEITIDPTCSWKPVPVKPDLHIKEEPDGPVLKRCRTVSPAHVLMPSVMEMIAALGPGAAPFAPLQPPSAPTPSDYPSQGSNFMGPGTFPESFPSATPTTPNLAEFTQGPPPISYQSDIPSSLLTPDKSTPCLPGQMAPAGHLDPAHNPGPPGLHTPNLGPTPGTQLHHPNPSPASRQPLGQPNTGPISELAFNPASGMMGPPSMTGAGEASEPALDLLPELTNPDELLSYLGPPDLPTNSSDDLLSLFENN
UniProt Q8CII2: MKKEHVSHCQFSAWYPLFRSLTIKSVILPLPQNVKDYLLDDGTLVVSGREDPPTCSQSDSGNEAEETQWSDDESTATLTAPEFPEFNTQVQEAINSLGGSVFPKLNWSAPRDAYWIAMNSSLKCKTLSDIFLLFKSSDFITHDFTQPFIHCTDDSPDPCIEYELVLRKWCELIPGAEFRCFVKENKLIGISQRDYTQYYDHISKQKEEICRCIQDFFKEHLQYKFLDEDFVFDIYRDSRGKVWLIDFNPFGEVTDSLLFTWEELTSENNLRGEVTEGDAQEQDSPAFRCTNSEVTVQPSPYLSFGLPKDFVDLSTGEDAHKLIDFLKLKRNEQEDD
UniProt Q8CF02: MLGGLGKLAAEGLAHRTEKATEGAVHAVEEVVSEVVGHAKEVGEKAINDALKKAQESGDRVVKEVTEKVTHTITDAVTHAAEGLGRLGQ
UniProt Q8CIF4: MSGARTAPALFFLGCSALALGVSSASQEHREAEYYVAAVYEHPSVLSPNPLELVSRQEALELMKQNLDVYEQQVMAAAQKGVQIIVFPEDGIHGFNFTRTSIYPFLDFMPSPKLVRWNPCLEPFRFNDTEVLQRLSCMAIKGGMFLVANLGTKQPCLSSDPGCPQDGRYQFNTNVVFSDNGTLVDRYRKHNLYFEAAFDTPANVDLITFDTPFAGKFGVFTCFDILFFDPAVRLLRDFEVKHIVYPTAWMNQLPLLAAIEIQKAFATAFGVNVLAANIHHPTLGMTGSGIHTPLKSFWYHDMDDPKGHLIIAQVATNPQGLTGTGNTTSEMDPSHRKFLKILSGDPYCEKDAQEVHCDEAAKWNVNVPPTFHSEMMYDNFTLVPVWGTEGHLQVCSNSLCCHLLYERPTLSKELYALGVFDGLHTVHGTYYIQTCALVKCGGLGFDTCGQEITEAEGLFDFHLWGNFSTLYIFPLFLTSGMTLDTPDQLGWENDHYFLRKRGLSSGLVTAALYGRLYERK
UniProt Q8CGB6: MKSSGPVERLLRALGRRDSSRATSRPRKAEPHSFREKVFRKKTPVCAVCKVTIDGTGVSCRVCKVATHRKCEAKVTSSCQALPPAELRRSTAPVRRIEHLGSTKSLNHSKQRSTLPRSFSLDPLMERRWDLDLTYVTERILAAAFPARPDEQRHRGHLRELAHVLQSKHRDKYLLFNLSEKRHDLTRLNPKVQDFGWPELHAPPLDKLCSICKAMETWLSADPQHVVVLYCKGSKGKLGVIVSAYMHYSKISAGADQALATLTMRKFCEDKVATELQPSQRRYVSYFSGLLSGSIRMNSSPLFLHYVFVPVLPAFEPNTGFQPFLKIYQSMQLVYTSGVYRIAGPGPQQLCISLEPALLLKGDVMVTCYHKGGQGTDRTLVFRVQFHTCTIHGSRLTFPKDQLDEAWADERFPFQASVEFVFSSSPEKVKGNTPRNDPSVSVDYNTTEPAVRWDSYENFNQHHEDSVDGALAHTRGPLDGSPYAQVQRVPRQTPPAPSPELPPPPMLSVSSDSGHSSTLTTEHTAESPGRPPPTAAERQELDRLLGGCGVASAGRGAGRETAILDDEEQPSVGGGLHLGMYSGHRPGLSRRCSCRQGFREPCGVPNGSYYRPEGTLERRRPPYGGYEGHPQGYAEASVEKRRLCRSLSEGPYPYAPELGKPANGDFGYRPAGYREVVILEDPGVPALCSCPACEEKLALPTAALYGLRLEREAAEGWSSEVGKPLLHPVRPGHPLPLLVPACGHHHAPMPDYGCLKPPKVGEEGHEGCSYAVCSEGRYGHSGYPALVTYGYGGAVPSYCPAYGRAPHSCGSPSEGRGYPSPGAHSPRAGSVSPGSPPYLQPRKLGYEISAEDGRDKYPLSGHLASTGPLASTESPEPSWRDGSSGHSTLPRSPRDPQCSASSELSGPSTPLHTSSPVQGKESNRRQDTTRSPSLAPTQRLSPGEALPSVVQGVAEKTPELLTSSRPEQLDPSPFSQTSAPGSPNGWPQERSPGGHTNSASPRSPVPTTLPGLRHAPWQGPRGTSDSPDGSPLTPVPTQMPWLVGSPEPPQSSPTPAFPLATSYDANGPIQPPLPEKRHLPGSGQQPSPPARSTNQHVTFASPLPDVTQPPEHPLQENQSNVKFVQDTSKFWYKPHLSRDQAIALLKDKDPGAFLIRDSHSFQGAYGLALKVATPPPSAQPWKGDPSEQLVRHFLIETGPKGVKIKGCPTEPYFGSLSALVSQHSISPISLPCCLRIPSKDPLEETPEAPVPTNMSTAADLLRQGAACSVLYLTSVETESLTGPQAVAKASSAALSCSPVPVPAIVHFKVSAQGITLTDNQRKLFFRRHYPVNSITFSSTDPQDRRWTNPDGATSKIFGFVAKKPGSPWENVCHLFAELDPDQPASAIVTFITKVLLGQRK
UniProt Q8CDN6: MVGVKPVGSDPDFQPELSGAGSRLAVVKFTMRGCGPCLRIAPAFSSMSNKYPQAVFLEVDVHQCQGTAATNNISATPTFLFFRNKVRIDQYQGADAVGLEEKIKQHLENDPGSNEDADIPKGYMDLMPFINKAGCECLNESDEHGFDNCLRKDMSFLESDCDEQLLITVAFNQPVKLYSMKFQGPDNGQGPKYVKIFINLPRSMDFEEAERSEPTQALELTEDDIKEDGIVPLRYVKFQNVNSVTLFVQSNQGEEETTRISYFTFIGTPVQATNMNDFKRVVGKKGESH
UniProt Q8CHP0: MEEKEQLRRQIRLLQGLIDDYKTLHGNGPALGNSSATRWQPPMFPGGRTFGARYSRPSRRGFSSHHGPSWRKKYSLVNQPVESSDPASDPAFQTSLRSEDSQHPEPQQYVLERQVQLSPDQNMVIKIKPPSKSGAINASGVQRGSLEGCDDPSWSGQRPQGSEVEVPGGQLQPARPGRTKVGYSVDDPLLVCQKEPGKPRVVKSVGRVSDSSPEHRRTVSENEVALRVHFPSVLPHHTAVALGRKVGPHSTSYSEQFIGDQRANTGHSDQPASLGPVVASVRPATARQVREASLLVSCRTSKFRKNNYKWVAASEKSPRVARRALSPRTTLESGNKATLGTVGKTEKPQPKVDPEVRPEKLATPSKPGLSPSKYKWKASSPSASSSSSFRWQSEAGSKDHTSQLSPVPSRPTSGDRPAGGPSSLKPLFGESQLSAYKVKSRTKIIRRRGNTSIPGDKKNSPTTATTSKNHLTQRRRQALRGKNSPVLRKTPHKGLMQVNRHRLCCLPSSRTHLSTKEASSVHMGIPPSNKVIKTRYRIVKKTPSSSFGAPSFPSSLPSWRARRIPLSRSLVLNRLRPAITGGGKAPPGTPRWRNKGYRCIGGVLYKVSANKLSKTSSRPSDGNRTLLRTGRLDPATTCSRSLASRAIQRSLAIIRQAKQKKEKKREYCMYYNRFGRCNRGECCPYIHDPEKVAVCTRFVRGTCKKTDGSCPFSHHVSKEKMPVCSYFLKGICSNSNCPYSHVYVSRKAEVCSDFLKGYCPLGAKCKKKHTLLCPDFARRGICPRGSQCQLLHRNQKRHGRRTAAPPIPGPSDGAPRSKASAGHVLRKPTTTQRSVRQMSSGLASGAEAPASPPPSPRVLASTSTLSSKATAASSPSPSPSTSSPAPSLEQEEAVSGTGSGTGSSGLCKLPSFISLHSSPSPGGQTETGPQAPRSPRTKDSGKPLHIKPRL
UniProt Q8CBA2: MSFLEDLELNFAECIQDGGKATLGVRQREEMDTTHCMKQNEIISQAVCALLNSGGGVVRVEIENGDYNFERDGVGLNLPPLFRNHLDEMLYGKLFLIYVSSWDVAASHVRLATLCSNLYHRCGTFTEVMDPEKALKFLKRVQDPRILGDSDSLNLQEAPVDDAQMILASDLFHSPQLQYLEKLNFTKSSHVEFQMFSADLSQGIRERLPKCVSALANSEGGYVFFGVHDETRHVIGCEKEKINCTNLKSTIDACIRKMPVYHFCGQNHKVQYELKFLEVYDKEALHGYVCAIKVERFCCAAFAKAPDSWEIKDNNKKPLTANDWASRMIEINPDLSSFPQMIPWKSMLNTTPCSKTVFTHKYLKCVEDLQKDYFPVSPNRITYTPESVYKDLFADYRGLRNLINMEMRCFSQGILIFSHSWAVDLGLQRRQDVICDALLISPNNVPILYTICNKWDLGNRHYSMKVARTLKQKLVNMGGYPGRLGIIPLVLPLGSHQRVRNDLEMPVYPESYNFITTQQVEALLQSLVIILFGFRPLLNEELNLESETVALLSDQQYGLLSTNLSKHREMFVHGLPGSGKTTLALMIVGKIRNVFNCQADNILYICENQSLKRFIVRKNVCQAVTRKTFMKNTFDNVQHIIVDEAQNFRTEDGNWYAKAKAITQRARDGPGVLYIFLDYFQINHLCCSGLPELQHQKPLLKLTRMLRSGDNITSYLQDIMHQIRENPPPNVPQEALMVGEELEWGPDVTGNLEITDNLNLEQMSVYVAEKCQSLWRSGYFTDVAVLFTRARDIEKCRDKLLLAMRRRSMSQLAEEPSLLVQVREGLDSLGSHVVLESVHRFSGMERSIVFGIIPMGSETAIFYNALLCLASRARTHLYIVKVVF
UniProt Q8CG46: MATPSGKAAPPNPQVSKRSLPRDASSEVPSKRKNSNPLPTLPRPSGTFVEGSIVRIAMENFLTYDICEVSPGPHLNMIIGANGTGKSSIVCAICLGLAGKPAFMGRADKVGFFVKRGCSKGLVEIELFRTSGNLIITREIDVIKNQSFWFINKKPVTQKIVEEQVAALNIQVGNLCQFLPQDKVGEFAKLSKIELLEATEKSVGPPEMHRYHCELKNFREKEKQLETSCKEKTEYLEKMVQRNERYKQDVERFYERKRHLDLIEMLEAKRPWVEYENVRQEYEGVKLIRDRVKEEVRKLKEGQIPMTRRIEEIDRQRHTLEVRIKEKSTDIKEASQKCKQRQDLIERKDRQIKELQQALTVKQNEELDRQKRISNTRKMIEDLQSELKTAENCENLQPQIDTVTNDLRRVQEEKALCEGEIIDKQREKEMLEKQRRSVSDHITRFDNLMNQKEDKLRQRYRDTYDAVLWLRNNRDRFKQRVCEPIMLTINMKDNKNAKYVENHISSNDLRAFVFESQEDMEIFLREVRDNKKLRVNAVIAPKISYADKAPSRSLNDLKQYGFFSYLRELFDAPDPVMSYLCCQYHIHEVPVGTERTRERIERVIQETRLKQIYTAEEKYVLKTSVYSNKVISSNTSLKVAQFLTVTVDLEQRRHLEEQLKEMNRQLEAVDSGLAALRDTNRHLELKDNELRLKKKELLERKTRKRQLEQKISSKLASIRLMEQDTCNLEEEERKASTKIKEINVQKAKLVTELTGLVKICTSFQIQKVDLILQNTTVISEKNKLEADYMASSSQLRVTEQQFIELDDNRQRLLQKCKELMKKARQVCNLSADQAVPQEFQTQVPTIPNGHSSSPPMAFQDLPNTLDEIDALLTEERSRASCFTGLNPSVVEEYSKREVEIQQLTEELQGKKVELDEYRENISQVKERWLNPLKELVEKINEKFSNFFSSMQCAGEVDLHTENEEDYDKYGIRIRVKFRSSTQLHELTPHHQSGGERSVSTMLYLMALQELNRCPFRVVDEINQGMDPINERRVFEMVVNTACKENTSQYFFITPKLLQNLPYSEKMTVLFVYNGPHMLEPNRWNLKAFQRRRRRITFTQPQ

This is one part of the list. Most values lie at the level of the controls, where differences are scatter.

Compound in this assay: CN[C@@H]1C[C@H]2O[C@@](C)([C@@H]1OC)n1c3ccccc3c3c4c(c5c6ccccc6n2c5c31)C(=O)NC4 [staurosporine]
The assay can be described thus: log2 fold change of tryptic peptide abundance, ligand vs vehicle (limited proteolysis) (log2 ratio); higher = more trypsin-susceptible (destabilized). As to conditions: ligand concentration: 20 uM; sample: mouse liver crude lysate; replicate design: treated separately.
Regarding “UniProt Q8CIE2 (peptide sequence: SYVQQGVYGR, peptide start residue: 102)”, the log2 fold change is -0.00686.

As for “UniProt Q8CJ96 (peptide sequence: SLTFTGGAK, peptide start residue: 129)”, the log2 fold change was -0.174.

Consider “UniProt Q8CFI0 (peptide sequence: RIMSVKR, peptide start residue: 663)”, for which the log2 fold change is -0.315.

As to “UniProt Q8CII2 (peptide sequence: CFVKENK, peptide start residue: 180)”, the log2 fold change is -0.396.

Turning to “UniProt Q8CF02 (peptide sequence: ATEGAVHAVEEVVSEVVGHAK, peptide start residue: 20)”, the log2 fold change was -0.202.

As for “UniProt Q8CFE2 (peptide sequence: TAGAGPQCEK, peptide start residue: 10)”, the log2 fold change turned out to be 0.281.

Take “UniProt Q8CJ53 (peptide sequence: RPTKDDPEVK, peptide start residue: 57)”: the log2 fold change is -0.822.

For “UniProt Q8CI59 (peptide sequence: EHYSSLCSLADQLAGK, peptide start residue: 94)”, the log2 fold change was -0.207.

In the case of “UniProt Q8CIF4 (peptide sequence: QEALELMK, peptide start residue: 57)”, the log2 fold change is -0.293.

Consider “UniProt Q8CFC7 (peptide sequence: DKEEAEAIK, peptide start residue: 242)”, for which the log2 fold change is -0.72.

Consider “UniProt Q8CGB6 (peptide sequence: HFLIETGPK, peptide start residue: 1192)”, for which the log2 fold change was -0.676.

On to “UniProt Q8CFK2 (peptide sequence: QLEQVLSK, peptide start residue: 305)”, for which the log2 fold change was -0.375.

Regarding “UniProt Q8CEC6 (peptide sequence: QQLPDMEFGR, peptide start residue: 333)”, the log2 fold change is 0.603.

For “UniProt Q8CDN6 (peptide sequence: AGCECLNESDEHGFDNCLRK, peptide start residue: 133)”, the log2 fold change was -0.332.

For the target “UniProt Q8JZP9 (peptide sequence: RLEEEFLANAR, peptide start residue: 523)”, the log2 fold change is -0.4.

“UniProt Q8CGP5 (peptide sequence: KTESHHKPK, peptide start residue: 120)”: the log2 fold change was found to be 0.0427.

Regarding “UniProt Q8K004 (peptide sequence: ASVHDSLAHGAPMR, peptide start residue: 411)”, the log2 fold change was -0.0832.

As for “UniProt Q8K013 (peptide sequence: VSHATPVIADYAFTTLRPELGK, peptide start residue: 168)”, the log2 fold change was -0.186.

Turning to “UniProt Q8CHP0 (peptide sequence: VDPEVRPEK, peptide start residue: 352)”, the log2 fold change was -0.124.

With “UniProt Q8CH72 (peptide sequence: VGHVGPLQIGQAVK, peptide start residue: 284)”, the log2 fold change was -0.256.

With “UniProt Q8CCB4 (peptide sequence: IKQEIIKK, peptide start residue: 252)”, the log2 fold change was -0.678.

For “UniProt Q8CBA2 (peptide sequence: LATLCSNLYHR, peptide start residue: 111)”, the log2 fold change is -0.136.

For “UniProt Q8CGB3 (peptide sequence: EQREPHSFQDLEIENEDLREK, peptide start residue: 294)”, the log2 fold change was -0.903.

Turning to “UniProt Q8JZN5 (peptide sequence: TVETLLLR, peptide start residue: 515)”, the log2 fold change was 0.174.

Turning to “UniProt Q8CG46 (peptide sequence: SVSDHITR, peptide start residue: 437)”, the log2 fold change is -0.531.

With “UniProt Q8CHU3 (peptide sequence: LQMALEESR, peptide start residue: 260)”, the log2 fold change was -0.0162.

As to “UniProt Q8CD91 (peptide sequence: LLDKNSSGDIGKK, peptide start residue: 358)”, the log2 fold change amounted to 0.129.

“UniProt Q8CJ61 (peptide sequence: DVDSRPEIQRLDT, peptide start residue: 196)”: the log2 fold change was -0.134.

Take “UniProt Q8CBD1 (peptide sequence: LQAVASMVEKR, peptide start residue: 241)”: the log2 fold change amounted to 0.242.

In the case of “UniProt Q8CFA1 (peptide sequence: RLMENIVLYKEER, peptide start residue: 601)”, the log2 fold change was 0.449.

On to “UniProt Q8K0B2 (peptide sequence: DGRPLPAR, peptide start residue: 254)”, for which the log2 fold change was -0.17.
